Earlier results as cited in US20250082656A1, “DOSAGE REGIMENS FOR TREATMENT OF DENGUE INFECTION” (Atea Pharmaceuticals, Inc., priority 2022, published 2025).
For at least one compound, name, drawing or mass did not settle the structure.

System: Dengue
Details: adult Dengue patients, Nguyen et al., 2013; cited from earlier work

CC(C)C(=O)OC[C@@]1(N=[N+]=[N-])O[C@@H](n2ccc(N)nc2=O)[C@H](OC(=O)C(C)C)[C@@H]1OC(=O)C(C)C [balapiravir]
antiviral response, cytokine profile and time to fever clearance versus placebo: no differences between compound and placebo treatment were observed
